# Screening data, single-dose tests

From ChEMBL document CHEMBL3988442, “University of Dundee, Small-Polar-MMV Screening Library” (2021).

Results are given as percent effect. How 0% and 100% were set is not recorded. Most values in the screen are low, and negative values occur. Compounds were drawn at random from those tested, without regard to their results. Two or more numbers in one place are separate tests of the same structure; such repeats can differ widely.

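Phenotypic screen: M. tuberculosis growth, glucose 7H9 medium, 3 days; the read-out is not stated. Tested at 50 µM. Direction is inferred from retests: higher values go with more growth inhibition. About 69,000 compounds were tested under these conditions; 1.1% (about 760) showed 50% or more at least once.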

compound	percent effect
Cc1cc(-c2nc(-c3cccc(CN4CCOCC4)c3)no2)no1	-8.173%
Cc1csc(N2CCCN(C(=O)c3c(C)noc3C)CC2)n1	4.52%
CC1CCCCN1Cc1ccc(-c2ccccc2C(=O)O)cc1 (stereo not shown)	-6.82%
CN(Cc1cn2c(n1)CN(C1CCOC1)CC2)Cc1ccco1.O=C(O)C(F)(F)F.O=C(O)C(F)(F)F (stereo not shown)	7.963%
CC(C)N1CCOC(CC(=O)N2CCCN(c3ccc(F)cc3)CC2)C1 (stereo not shown)	11.68% and 0.2677%
Cc1cc(-c2cnc(N3CCCC(C)C3)nc2C(C)C)on1 (stereo not shown)	29.14%
[H][C@@]12CS(=O)(=O)C[C@]1([H])N(C(=O)c1[nH]c3ccccc3c1CC)CCN2C	26.87%
CN1CCN(C(=O)c2ccnc(N3CCOC(C(F)(F)F)C3)c2)CC1 (stereo not shown)	-29.13%
Cc1cc(C(=O)N(C)Cc2cnn(C)c2C)n(C)n1	38.98%
COc1cccnc1NC(=O)COc1c(C)cccc1C	8.702% and 16.1%
Cc1noc(NCc2ccc(F)cc2F)n1	-21.43%
CCOc1ccc(Cl)c(C(=O)NCCC(=O)Nc2ccncc2)n1	3.36%
CC(C)[C@H]1COC(=O)N1Cc1nccn1C1CC1	-22.65%
CC(Cn1cccn1)NC(=O)NCCN1CCCCCC1=O (stereo not shown)	-1.803% and -1.867%
COc1cccc(Nc2nc(C3CCCNC3)c3sc(C)c(C)n23)c1.Cl (stereo not shown)	-20.51%
CCN1CCC(CNC(=O)C(c2ccccc2F)N(C)C)(N(C)C)CC1 (stereo not shown)	4.593%
CNC(=O)C1Cn2ccnc2C2(CCN(CCF)CC2)O1 (stereo not shown)	-7.507%
CC1COCCN1Cc1nc(-c2cccs2)no1 (stereo not shown)	-11.48%
COc1ccc(CNC(=O)NC2CCC(O)CC2)c(C(F)(F)F)c1 (stereo not shown)	-14.29% and -6.649%
COCc1nc(C(=O)NS(=O)(=O)c2cc(F)ccc2F)cs1	-3.766%
C[C@@H](O)CNc1c(NCc2ccco2)c(=O)c1=O	11.71%
Cc1cc(C2CCCN(C(=O)CCc3cscn3)C2)n[nH]1 (stereo not shown)	11.44%
CNc1ncc(C(=O)N2CCC3(CC2)Nc2ccccc2NC3=O)cn1	-6.671%
CC(=O)NCc1ccc(S(=O)(=O)NC(=O)c2ccc3c(c2)COC3)s1	-40.27%
Cc1nc2c(c(C)c1CC(=O)NCc1ccco1)c(=O)[nH]n2C	9.817%
CCOCCCn1c(NC(=O)c2ccnc(C)n2)nc2ccccc21	-10.3%
Cc1cc(C(=O)NCc2ccc(-c3n[nH]cc3C(=O)N(C)C)cc2)on1	-17.59%
O[C@@H]1C[C@@H](c2nc(-c3ccc(OC(F)(F)F)cc3)no2)N(CC2CC2)C1	-18.34% and 6.306%
CCNC(=O)[C@@H]1C[C@H](NC(=O)c2ccc(C)s2)CN1Cc1ccc(C)o1	11.52%
CC(=O)NCCc1ccc(S(=O)(=O)N(C)C(C)C(C)(C)C)s1 (stereo not shown)	-11.25%
COc1ccccc1C(=O)N(Cc1nc(C)cs1)CC1CCCO1 (stereo not shown)	9.921%
Cc1nc(N(C)C)nc(NCCc2ccccn2)c1C	13.02%
Cc1cnc(N2CCc3c(cnc(C)c3C(=O)O)C2)nc1.O=C(O)C(F)(F)F	-4.274% and -15.63%
Cc1cccc(CN2CCc3c(COCC(=O)N(C)C)nn(C)c3C2)n1.O=C(O)C(F)(F)F.O=C(O)C(F)(F)F	25.31% and 5.752%
Cc1nn(C)c2c(NCCCn3cccn3)nc(C3CC3)nc12	44.41%
Cc1nc(-c2cccnc2)ncc1C(=O)N1CCCCC(N)C1 (stereo not shown)	-8.58%
CN(Cc1nnc(C2CC2)n1C)S(=O)(=O)c1ccccc1F	35.01%
Cn1cc(NC(=O)N2CCCC2c2cccnc2)ccc1=O (stereo not shown)	1.468%
O=C(NCC1(N2CCOCC2)CCSC1)Nc1ccc(F)cc1 (stereo not shown)	-25.38%
Cc1nc(C(C)NC(=O)c2cn(Cc3ccc(Cl)cc3)nn2)n[nH]1 (stereo not shown)	12.63% and 0.7057%
CCN1CCC(NC(=O)CN2CCCC2Cn2nc(C)nc2C)CC1 (stereo not shown)	-21.18%
c1ccc(CN2CCCC2Cn2cncn2)nc1 (stereo not shown)	-17.37%
CC(=O)N1Cc2ccccc2CC1C(=O)Nc1ccc(N(C)C)cn1 (stereo not shown)	-25.24%
COCC(=O)N1CCC([C@@H]2C[C@H](C(F)(F)F)n3nc(C)cc3N2)CC1	13.19%
O=C(O)C(F)(F)F.O=C1CC[C@]2(CC[C@@H](NCc3ccoc3)CC2)N1	-11.48%
COc1ccc(C(C(=O)O)N(C)CCN2CCCC2)c(C)c1 (stereo not shown)	-39.66%
CN1CCCC(Cc2cc(N(C)C)ncn2)C1 (stereo not shown)	-4.263%
Cc1ccc(CN2CC3(CCN(C(=O)Cc4ccc(Cl)cc4)C3)C2)o1	8.967%
COCC(=O)N1CCC(c2ccc(OC)cc2)C1 (stereo not shown)	-3.634%